According to publication PMC6168688:
No constants are given. Whether binding was seen depends on the method and setting. For some assays here: In cells and extracts the contact can be indirect. Some binding calls cover weakened binding; strength is not graded here. Where a sequence is shown, tags or fusion partners need not be part of it.

T1: AtNOC2, full length, yeast two-hybrid matrix fusion (pPC86/pPC97) (A. thaliana) (UniProt Q9ZPV5)
T1 sequence: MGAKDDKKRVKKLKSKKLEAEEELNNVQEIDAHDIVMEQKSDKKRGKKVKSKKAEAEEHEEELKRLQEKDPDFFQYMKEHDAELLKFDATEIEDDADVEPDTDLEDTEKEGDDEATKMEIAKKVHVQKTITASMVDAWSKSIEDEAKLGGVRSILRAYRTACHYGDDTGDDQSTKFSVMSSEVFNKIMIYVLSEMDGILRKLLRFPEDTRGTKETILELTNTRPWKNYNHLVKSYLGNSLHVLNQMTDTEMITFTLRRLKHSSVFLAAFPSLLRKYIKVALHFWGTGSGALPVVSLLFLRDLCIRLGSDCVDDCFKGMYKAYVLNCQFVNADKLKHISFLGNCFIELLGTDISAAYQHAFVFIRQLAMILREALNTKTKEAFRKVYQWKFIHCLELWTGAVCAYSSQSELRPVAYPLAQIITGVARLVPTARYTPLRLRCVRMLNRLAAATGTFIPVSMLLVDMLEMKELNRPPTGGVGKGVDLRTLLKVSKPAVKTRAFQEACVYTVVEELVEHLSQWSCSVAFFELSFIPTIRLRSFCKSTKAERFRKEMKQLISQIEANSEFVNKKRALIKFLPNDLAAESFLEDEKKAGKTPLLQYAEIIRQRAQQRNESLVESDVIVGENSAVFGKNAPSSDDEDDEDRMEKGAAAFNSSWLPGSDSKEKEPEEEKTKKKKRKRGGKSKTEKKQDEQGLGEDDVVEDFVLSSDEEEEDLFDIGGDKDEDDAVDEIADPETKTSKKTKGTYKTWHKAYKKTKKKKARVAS

T2: REBELOTE (RBL), full length, BiFC fusion (pBiFP1-4) (A. thaliana) (UniProt Q0WVH0)
T2 sequence: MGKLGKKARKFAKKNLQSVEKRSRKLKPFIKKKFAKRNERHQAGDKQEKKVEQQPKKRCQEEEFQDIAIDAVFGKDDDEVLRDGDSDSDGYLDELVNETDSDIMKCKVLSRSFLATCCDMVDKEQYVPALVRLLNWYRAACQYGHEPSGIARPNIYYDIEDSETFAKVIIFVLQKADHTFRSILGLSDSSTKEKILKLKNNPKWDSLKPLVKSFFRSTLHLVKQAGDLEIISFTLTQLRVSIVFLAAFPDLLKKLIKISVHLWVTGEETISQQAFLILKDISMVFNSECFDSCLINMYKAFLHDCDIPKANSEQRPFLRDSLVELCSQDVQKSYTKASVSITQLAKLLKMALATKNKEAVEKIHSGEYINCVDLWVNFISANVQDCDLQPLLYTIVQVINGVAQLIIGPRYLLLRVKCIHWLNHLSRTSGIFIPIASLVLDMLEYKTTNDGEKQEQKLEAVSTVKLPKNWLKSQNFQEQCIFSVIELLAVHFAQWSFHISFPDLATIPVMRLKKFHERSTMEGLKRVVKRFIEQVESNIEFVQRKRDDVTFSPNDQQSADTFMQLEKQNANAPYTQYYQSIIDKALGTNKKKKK

T3: AtNOC2, full length, BiFC fusion (pBiFP1-4) (A. thaliana) (UniProt Q9ZPV5)
T3 sequence: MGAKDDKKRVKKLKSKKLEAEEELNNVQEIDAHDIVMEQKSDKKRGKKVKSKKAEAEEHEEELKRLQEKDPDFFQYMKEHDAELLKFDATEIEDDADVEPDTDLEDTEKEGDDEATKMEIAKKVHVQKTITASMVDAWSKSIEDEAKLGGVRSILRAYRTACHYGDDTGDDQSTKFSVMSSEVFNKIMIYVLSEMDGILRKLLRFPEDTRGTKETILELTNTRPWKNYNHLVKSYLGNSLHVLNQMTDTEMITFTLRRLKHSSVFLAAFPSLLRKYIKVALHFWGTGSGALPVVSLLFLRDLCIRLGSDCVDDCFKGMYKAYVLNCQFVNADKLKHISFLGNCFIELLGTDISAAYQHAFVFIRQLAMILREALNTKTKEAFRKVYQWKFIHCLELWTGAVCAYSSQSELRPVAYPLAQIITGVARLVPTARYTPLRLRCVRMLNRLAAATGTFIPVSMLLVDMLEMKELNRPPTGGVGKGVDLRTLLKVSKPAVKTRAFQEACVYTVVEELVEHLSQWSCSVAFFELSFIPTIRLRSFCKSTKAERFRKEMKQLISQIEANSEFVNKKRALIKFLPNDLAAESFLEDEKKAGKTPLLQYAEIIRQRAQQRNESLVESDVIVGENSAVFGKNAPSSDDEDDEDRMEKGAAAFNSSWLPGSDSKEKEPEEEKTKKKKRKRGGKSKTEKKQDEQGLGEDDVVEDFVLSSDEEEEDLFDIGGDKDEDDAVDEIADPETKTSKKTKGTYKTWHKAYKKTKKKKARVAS


What was measured:
[1] = target: T1, AtNOC2, full length, yeast two-hybrid matrix fusion (pPC86/pPC97) (A. thaliana); test: two-hybrid; A. thaliana NOC proteins tested two by two, in both directions, pPC86- and pPC97-based vectors; growth on SD-HTL selective media (10-3 dilution)
[2] = target: T2, REBELOTE (RBL), full length, BiFC fusion (pBiFP1-4) (A. thaliana); test: split reporter; BiFC: two A. thaliana NOC proteins fused to N-term or C-term regions of YFP, transient coexpression in epidermal cells of N. benthamiana leaves, with H2B-mRFP or FIB-mRFP marker
[3] = target: T3, AtNOC2, full length, BiFC fusion (pBiFP1-4) (A. thaliana); test: as above

Row | binding [1] | binding [2] | binding [3] | Binder
1 | binds | – | – | AtNOC2, full length, yeast two-hybrid matrix fusion (pPC86/pPC97) (protein, UniProt Q9ZPV5 1-764) MGAKDDKKRVKKLKSKKLEAEEELNNVQEIDAHDIVMEQKSDKKRGKKVKSKKAEAEEHEEELKRLQEKDPDFFQYMKEHDAELLKFDATEIEDDADVEPDTDLEDTEKEGDDEATKMEIAKKVHVQKTITASMVDAWSKSIEDEAKLGGVRSILRAYRTACHYGDDTGDDQSTKFSVMSSEVFNKIMIYVLSEMDGILRKLLRFPEDTRGTKETILELTNTRPWKNYNHLVKSYLGNSLHVLNQMTDTEMITFTLRRLKHSSVFLAAFPSLLRKYIKVALHFWGTGSGALPVVSLLFLRDLCIRLGSDCVDDCFKGMYKAYVLNCQFVNADKLKHISFLGNCFIELLGTDISAAYQHAFVFIRQLAMILREALNTKTKEAFRKVYQWKFIHCLELWTGAVCAYSSQSELRPVAYPLAQIITGVARLVPTARYTPLRLRCVRMLNRLAAATGTFIPVSMLLVDMLEMKELNRPPTGGVGKGVDLRTLLKVSKPAVKTRAFQEACVYTVVEELVEHLSQWSCSVAFFELSFIPTIRLRSFCKSTKAERFRKEMKQLISQIEANSEFVNKKRALIKFLPNDLAAESFLEDEKKAGKTPLLQYAEIIRQRAQQRNESLVESDVIVGENSAVFGKNAPSSDDEDDEDRMEKGAAAFNSSWLPGSDSKEKEPEEEKTKKKKRKRGGKSKTEKKQDEQGLGEDDVVEDFVLSSDEEEEDLFDIGGDKDEDDAVDEIADPETKTSKKTKGTYKTWHKAYKKTKKKKARVAS
2 | – | binds | binds | AtNOC3, full length, BiFC fusion (pBiFP1-4) (protein, UniProt F4IDJ0 1-830) MGKNRRKQKVIPPPLLPPDVAEEDIEFSDEDLKYVKENTDYAQFVSQIDTAAINKQCGGRVMTVEDKYEEERSKRKTLQEEKGNGEILVDPVDVLPVKTLDGKLHYRTESKKSKLAEAETDEAEKDVLEDEHVLNKSQRREKAKKSKREAKKHEKDLPDEILQEEEETPQAAVLAEVKEELSAEESFENKKNKIAELGMLLLSDPEANIKTLKDMLDICKDQNTKIVKLALLSLLAVFKDIIPGYRIRLPTEKELEMKISKEVKKTRFYESTLLKAYKSYLQKLIIFEKQSVYNQIANRCLCTLLEAVPHFNYRDNLLIAVVRNISSPDEVVRRLCCSTIRYLFSNEGKHGGELTVQAVRLIADHVKAHNCQLHPNAIEVFMSIRFDEDIGKPNKEDEHNKKYKKNNKRKTQEEQNQVQENERKKSKKDMMSKIRDEVSADHRGVTYEPDAKERRKMQTETLSAVFETYFRILRNTMYTIGERTEEIPTSNPGAFGSHPLLAPCLDGLAKFTQQLDLDYMGDLMNYLKKLASSSSSVSNNTKQKNSKLLTVSERLRCCLVAFKVMRSNLNALNVDLQDFFVQLYNLILEYRPGRDSGVILAESLKIMLCDDRHQDMQKAAAFVKRLATFALCFGCAESMSALVTLKTLLQKNVKCRNLLENDAGGGSVSGSIAKYQPYATDPNLSGALATVLWELSLLSKHYHPAISTMATTVSNMNTSQSQTFLSAVTPQQAFADFSLVKESFEPKNESRKLNNKRKRESLPEEAKNVPEIDMVKLSKKLKENFTILRDIKEDERVRMELLQSEEKKPLKKQNNVVKKKLKNPKSKKQI
3 | – | binds | binds | REBELOTE (RBL), full length, BiFC fusion (pBiFP1-4) (protein, UniProt Q0WVH0 1-594) MGKLGKKARKFAKKNLQSVEKRSRKLKPFIKKKFAKRNERHQAGDKQEKKVEQQPKKRCQEEEFQDIAIDAVFGKDDDEVLRDGDSDSDGYLDELVNETDSDIMKCKVLSRSFLATCCDMVDKEQYVPALVRLLNWYRAACQYGHEPSGIARPNIYYDIEDSETFAKVIIFVLQKADHTFRSILGLSDSSTKEKILKLKNNPKWDSLKPLVKSFFRSTLHLVKQAGDLEIISFTLTQLRVSIVFLAAFPDLLKKLIKISVHLWVTGEETISQQAFLILKDISMVFNSECFDSCLINMYKAFLHDCDIPKANSEQRPFLRDSLVELCSQDVQKSYTKASVSITQLAKLLKMALATKNKEAVEKIHSGEYINCVDLWVNFISANVQDCDLQPLLYTIVQVINGVAQLIIGPRYLLLRVKCIHWLNHLSRTSGIFIPIASLVLDMLEYKTTNDGEKQEQKLEAVSTVKLPKNWLKSQNFQEQCIFSVIELLAVHFAQWSFHISFPDLATIPVMRLKKFHERSTMEGLKRVVKRFIEQVESNIEFVQRKRDDVTFSPNDQQSADTFMQLEKQNANAPYTQYYQSIIDKALGTNKKKKK
4 | binds | – | – | REBELOTE (RBL), full length, yeast two-hybrid matrix fusion (pPC86/pPC97) (protein, UniProt Q0WVH0 1-594) MGKLGKKARKFAKKNLQSVEKRSRKLKPFIKKKFAKRNERHQAGDKQEKKVEQQPKKRCQEEEFQDIAIDAVFGKDDDEVLRDGDSDSDGYLDELVNETDSDIMKCKVLSRSFLATCCDMVDKEQYVPALVRLLNWYRAACQYGHEPSGIARPNIYYDIEDSETFAKVIIFVLQKADHTFRSILGLSDSSTKEKILKLKNNPKWDSLKPLVKSFFRSTLHLVKQAGDLEIISFTLTQLRVSIVFLAAFPDLLKKLIKISVHLWVTGEETISQQAFLILKDISMVFNSECFDSCLINMYKAFLHDCDIPKANSEQRPFLRDSLVELCSQDVQKSYTKASVSITQLAKLLKMALATKNKEAVEKIHSGEYINCVDLWVNFISANVQDCDLQPLLYTIVQVINGVAQLIIGPRYLLLRVKCIHWLNHLSRTSGIFIPIASLVLDMLEYKTTNDGEKQEQKLEAVSTVKLPKNWLKSQNFQEQCIFSVIELLAVHFAQWSFHISFPDLATIPVMRLKKFHERSTMEGLKRVVKRFIEQVESNIEFVQRKRDDVTFSPNDQQSADTFMQLEKQNANAPYTQYYQSIIDKALGTNKKKKK
5 | – | binds | binds | SLOW WALKER 2 (SWA2), full length, BiFC fusion (pBiFP1-4) (protein, UniProt F4IDC2 1-1043) MSKIKPLSKSSQDLSLLTSDIASFASSIGLASALPSSGFNDTDFRKPAKSKTQKRKKPKKDQQHKDEDEEGEPKSNIGNEKGKDFGARKQNKDAPVKQTLQPKPKPGFLSIDDESTGYKKKRFDEFKSLPKLPLVKASLLSSEWYNDAAEFEEKVFGGRKVAVANKEDFKGVVEKKRELGERLMWQYAEDFATSKGKGGDMKMVISAQKSGTVADKITAFEIMVGENPIANMRSLDALLGMVTSKVGKRFAFKGLKALSEILIRLLPDRKLKSLLQRPLNIIPENKDGYSLLLFWYWEDCLKQRYERFVTALDESSKDMLPELKDKALKTIYFMLTSKSEQERKLLVSLVNKLGDPQNKSASNADYHLTNLLADHPNMKAVVIDEVDSFLFRPHLGLRAKYHAVNFLSQIRLSHKGEDPKVAKRLIDVYFALFKVLTTEANRKQGADDKGAADKKKSNPKDTKQEVSTDSPIELDSRILSALLTGVNRAFPYVSTDEADDIIESQTPVLFKLVHSANFNVGVQSLMLLDKISSKNKIVSDRFYRALYSKLLLPSAMNSSKAEMFIGLLLRAMKNDINIKRVAAFSKRVLQVALQQPPQYACGCLFLLSEVLKSRPPLWKMVVQRESVEEEEDIEHFEDVIEGDDVDPNKKAENDENVVEVDHDGVEKSSRDGDSSSDDEEALAIRLSDEEDDNASDDSEELIRNETPQLEEVMEVSNDMEKRSQPPMRPSSLPGGYDPRHREPSYCNADRASWWELGVLSKHAHPSVATMAGTLLSGTNIVYNGNPLNDLSLTAFLDKFMEKKPKQNTWHGGSQIEPSKKLDMSNRVIGAEILSLAEGDVAPEDLVFHKFYVNKMTSTKQSKKKKKKKLPEEEAAEELYDVNDGDGGENYDSDVEFEAGDESDNEEIENMLDDVDDNAVEEEGGEYDYDDLDGVAGEDDEELVADVSDAEMDTDMDMDLIDDEDDNNVDDDGTGDGGDDDSDGDDGRSKKKKKEKRKRKSPFASLEEYKHLIDQDEKEDSKTKRKATSEPTKKKKKKKSKASE
